Reference: publication PMC12412546

By UniProt entry, the sequences of proteins in these tests, tags left out.
UniProt Q03135: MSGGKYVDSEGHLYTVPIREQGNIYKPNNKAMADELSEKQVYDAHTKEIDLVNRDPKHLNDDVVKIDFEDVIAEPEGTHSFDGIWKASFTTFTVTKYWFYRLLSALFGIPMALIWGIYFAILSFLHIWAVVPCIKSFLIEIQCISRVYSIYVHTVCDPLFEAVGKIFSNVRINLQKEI
UniProt P46940: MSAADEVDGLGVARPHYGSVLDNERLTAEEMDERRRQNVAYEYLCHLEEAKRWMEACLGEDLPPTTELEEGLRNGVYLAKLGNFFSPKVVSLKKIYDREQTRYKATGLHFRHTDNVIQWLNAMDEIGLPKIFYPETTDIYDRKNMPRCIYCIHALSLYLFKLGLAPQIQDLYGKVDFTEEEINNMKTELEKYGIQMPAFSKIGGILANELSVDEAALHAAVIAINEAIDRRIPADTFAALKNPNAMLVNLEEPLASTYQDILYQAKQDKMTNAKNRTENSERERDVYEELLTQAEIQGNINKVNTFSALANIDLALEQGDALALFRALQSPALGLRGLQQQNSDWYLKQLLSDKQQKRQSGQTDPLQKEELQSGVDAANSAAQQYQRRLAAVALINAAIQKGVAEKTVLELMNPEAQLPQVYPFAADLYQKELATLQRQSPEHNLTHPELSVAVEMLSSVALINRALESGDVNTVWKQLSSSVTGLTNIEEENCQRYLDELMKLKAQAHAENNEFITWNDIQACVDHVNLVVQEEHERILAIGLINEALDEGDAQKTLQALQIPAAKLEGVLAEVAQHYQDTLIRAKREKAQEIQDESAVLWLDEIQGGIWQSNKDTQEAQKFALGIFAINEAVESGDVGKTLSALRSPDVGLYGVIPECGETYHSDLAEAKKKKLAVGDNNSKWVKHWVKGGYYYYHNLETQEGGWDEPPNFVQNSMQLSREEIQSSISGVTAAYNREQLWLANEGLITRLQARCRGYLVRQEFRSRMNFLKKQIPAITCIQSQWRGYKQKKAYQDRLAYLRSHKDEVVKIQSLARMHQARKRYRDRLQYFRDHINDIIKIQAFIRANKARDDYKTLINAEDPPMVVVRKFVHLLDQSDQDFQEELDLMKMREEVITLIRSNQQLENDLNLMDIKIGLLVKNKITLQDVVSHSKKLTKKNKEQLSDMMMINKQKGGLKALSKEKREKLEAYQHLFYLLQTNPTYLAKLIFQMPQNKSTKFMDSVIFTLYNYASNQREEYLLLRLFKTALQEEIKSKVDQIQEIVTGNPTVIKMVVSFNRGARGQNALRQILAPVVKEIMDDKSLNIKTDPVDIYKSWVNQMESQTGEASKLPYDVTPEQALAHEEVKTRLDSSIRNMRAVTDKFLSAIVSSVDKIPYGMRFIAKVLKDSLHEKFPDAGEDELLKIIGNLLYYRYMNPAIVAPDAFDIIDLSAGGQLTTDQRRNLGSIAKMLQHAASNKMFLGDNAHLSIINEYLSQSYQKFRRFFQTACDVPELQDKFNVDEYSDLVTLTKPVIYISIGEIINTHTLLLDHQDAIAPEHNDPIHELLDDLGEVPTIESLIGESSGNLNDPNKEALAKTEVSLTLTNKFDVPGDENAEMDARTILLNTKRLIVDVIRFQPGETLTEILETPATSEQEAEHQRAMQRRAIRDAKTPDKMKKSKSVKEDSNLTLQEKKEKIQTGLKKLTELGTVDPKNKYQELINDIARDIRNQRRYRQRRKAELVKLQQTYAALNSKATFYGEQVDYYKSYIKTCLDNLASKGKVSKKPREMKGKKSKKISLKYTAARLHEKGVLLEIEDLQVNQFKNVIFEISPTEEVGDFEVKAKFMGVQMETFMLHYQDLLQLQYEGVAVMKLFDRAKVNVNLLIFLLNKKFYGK

Target: T1, cytoskeletal associated protein Palladin (PALLD) (human (endogenous in the paper's human pancreatic cell lines; line not stated for this experiment)) (UniProt Q8WX93)
T1 sequence: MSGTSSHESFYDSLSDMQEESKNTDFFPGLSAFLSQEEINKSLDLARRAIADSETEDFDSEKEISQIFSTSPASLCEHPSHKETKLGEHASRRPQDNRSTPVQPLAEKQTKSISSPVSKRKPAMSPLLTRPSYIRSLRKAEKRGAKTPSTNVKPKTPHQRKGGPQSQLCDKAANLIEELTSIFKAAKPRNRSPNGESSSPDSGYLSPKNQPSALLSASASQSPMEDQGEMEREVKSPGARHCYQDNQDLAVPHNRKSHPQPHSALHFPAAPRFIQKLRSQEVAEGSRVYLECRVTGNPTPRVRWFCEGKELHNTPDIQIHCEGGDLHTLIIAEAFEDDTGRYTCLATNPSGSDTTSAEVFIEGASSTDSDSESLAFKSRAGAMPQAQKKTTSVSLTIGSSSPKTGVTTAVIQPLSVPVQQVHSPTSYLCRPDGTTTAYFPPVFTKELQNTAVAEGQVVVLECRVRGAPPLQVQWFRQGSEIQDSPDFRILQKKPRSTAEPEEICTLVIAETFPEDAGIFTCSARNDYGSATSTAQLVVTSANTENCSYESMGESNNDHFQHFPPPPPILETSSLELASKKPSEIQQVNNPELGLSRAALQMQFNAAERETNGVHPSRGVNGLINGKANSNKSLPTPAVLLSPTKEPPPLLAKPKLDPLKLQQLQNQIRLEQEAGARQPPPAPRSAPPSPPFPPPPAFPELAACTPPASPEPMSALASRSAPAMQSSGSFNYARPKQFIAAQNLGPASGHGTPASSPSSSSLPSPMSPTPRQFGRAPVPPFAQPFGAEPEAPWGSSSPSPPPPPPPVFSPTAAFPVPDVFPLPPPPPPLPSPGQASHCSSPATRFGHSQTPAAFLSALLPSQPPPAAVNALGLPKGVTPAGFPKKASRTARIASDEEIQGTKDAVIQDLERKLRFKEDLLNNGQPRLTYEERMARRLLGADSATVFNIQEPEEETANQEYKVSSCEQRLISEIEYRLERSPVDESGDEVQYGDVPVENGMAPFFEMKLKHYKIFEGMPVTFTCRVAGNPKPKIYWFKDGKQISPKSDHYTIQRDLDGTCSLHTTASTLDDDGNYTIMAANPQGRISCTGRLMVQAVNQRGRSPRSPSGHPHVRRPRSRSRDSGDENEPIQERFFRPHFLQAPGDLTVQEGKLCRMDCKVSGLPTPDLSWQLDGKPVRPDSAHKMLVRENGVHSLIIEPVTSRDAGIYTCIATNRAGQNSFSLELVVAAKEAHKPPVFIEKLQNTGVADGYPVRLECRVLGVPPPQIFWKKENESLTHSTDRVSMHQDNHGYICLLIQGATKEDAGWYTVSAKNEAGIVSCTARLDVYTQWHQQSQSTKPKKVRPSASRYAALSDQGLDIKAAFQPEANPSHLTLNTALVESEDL
Test: affinity purification with mass spectrometry; cell lysate incubated with anti-PALLD antibody or rabbit IgG (2 h, 4 °C), then overnight at 4 °C with 2% BSA and protein A-Sepharose beads; eluate on SDS-PAGE, trypsin digest, LC-MS/MS

binding: binds
Molecule: CAV1 (from UniProt Q03135 1-178)

binding: binds
Molecule: IQ motif containing GTPase-activating protein 1 (IQGAP1) (from UniProt P46940 1-1657)

binding: binds
B1: TMEM43 (protein, UniProt Q9BTV4 1-400)
chain: MAANYSSTSTRREHVKVKTSSQPGFLERLSETSGGMFVGLMAFLLSFYLIFTNEGRALKTATSLAEGLSLVVSPDSIHSVAPENEGRLVHIIGALRTSKLLSDPNYGVHLPAVKLRRHVEMYQWVETEESREYTEDGQVKKETRYSYNTEWRSEIINSKNFDREIGHKNPSAMAVESFMATAPFVQIGRFFLSSGLIDKVDNFKSLSLSKLEDPHVDIIRRGDFFYHSENPKYPEVGDLRVSFSYAGLSGDDPDLGPAHVVTVIARQRGDQLVPFSTKSGDTLLLLHHGDFSAEEVFHRELRSNSMKTWGLRAAGWMAMFMGLNLMTRILYTLVDWFPVFRDLVNIGLKAFAFCVATSLTLLTVAAGWLFYRPLWALLIAGLALVPILVARTRVPAKKLE

These are yes or no findings as the source states them, for the method shown. Binding seen in cells or lysates may run through a third protein. Here binding means that the protein was enriched with, or labelled near, the bait; the list need not be complete. Where a sequence is shown, tags or fusion partners need not be part of it. One block for each molecule: values may come before it.
